Out of some 340,000 compounds screened, about 4,500 (1.3%) were called active. Inconclusive results, whose numbers are uncertain, are shown with a selection of clear calls. The call rests on the fitted dose curve; in most records, active means well fitted inhibition curve with a large enough effect; inconclusive means small, poorly fitted or top-dose-only effect, or another doubt; inactive means no such curve, though single readings can be large or run the other way. A potency beside an inconclusive call is a rough fit, not a confirmed value.
biological target: DNA polymerase beta (Homo sapiens) (UniProt P06746); assay: qHTS Assay for Inhibitors of DNA Polymerase Beta; settings: Pol beta primer extension/strand displacement, fluorescence kinetic; activity change, negative = inhibition: at 114 µM (top of the series)
How it was run: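 Homogeneous kinetic assay of primer extension and strand displacement by 10 nM Pol beta, preincubated 15 min at room temperature with compound before 50 nM substrate (final) was added. Read at 0 and 10 min; four-parameter Hill fit.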
On the % scale 0 is the no-effect control and ±100 the full control effect; potency means the concentration at half of the fitted maximal effect.

| SMILES | Potency | activity change, negative = inhibition |
| --- | --- | --- |
| CCc1ccc(NC(=O)CCNC(=O)Cn2ccc3ccccc3c2=O)cc1 | inconclusive: 39.8 µM [inhibitor, partial curve] |  |
| O=S(=O)(Nc1ccc(O)c(NS(=O)(=O)c2ccccc2)c1)c1ccccc1 | inactive |  |
| Cc1ccccc1NC(=O)Cn1cc(C(=O)C2CC2)c2ccccc21 |  | inconclusive: -79.4% [inhibitor] |
| N#Cc1c(-c2ccco2)cc(-c2ccccn2)nc1N | inconclusive: 50.1 µM [inhibitor, partial curve] |  |
| O=C(COC(=O)CCSc1ccccc1)NCc1ccccc1Cl | inconclusive: 0.158 µM [inhibitor, full curve, poor fit] |  |
| CCn1c(SCC(=O)NCc2ccco2)nc2ccccc2c1=O | inactive |  |
| O=C(Nc1ccccc1)c1ccc(Cn2cc(C(F)(F)F)ccc2=O)cc1 | inconclusive: 89.1 µM [inhibitor, single point] |  |
| Cc1cc(C)c(NC(=O)Cn2nnc(S(=O)(=O)c3ccc(C)c(C)c3)c2N)c(C)c1 | active: 10 µM |  |
| O=C(COc1ccc2ccccc2c1)Nc1ccc(Cc2ccncc2)cc1 | inconclusive: 35.5 µM [inhibitor, full curve, poor fit] |  |
| CCc1cc2c(CN(C)Cc3ccccc3F)cc(=O)oc2cc1O | inconclusive: 79.4 µM [inhibitor, single point] |  |
| COc1cc(/C=C2/SC(=S)N(c3c(C)n(C)n(-c4ccccc4)c3=O)C2=O)ccc1O | active: 28.2 µM |  |
| O=C(Nc1cccc(Cl)c1)c1cc(N=Nc2ccc([N+](=O)[O-])cc2Cl)ccc1O | inactive |  |
| O=C(Cc1ccccc1)Nc1cccc(-c2nnc(-c3ccco3)o2)c1 | inconclusive: 3.16 µM [inhibitor, partial curve, poor fit] |  |
| Cc1ccc(Nc2nc(COC(=O)COc3ccc(C=O)cc3)cs2)cc1 | inconclusive: 89.1 µM [inhibitor, single point] |  |
| COc1cc(OC)c(NC(=O)c2ccc3c(c2)N(Cc2ccc(C)cc2)CCS3)cc1Cl | inactive |  |
| COc1ccccc1NC(=O)N(Cc1cccs1)Cc1cc2cc3c(cc2[nH]c1=O)OCO3 | inconclusive: 0.794 µM [inhibitor, full curve, poor fit] |  |
| Cn1cnnc1-c1cccc(NC(=O)c2cc(F)c(F)cc2Cl)c1 | inactive |  |
| COc1ccc(/C=C/c2nc(-c3ccccc3O)n[nH]2)cc1OC | inconclusive: 44.7 µM [inhibitor, partial curve, poor fit] |  |
| Cn1c(=O)oc2cc(S(=O)(=O)NC(Cc3ccccc3)C(=O)NCc3ccccc3Cl)ccc21 (stereo not given) | inactive |  |
| COc1ccccc1NC(=O)c1ccccc1NC(=O)c1cc(Cl)ccc1NC(=O)c1ccco1 | inconclusive: 10 µM [inhibitor, partial curve, poor fit] |  |
| COc1cc(/C=N/Nc2nn3cnnc3c3ccccc23)cc(OC)c1OC | inconclusive: 22.4 µM [inhibitor, full curve] |  |
| Fc1cccc(CSc2ccc(-c3ccco3)nn2)c1 | inconclusive: 11.2 µM [inhibitor, full curve, poor fit] |  |
| Cc1nc(S/C(=C/c2ccc(-c3cc(Cl)ccc3C)o2)C(=O)O)n[nH]1 | inconclusive: 14.1 µM [inhibitor, partial curve, poor fit] |  |
| CN1C2CCC1/C(=C/c1cccn1C)C(=O)/C2=C\c1cccn1C | inconclusive: 79.4 µM [inhibitor, single point] |  |

Gathered by group, the compounds so far with fluorine

| SMILES | Potency | activity change, negative = inhibition |
| --- | --- | --- |
| O=C(Nc1ccccc1)c1ccc(Cn2cc(C(F)(F)F)ccc2=O)cc1 | inconclusive: 89.1 µM [inhibitor, single point] |  |
| CCc1cc2c(CN(C)Cc3ccccc3F)cc(=O)oc2cc1O | inconclusive: 79.4 µM [inhibitor, single point] |  |
| Cn1cnnc1-c1cccc(NC(=O)c2cc(F)c(F)cc2Cl)c1 | inactive |  |
| Fc1cccc(CSc2ccc(-c3ccco3)nn2)c1 | inconclusive: 11.2 µM [inhibitor, full curve, poor fit] |  |

Further compounds follow:

| SMILES | Potency | activity change, negative = inhibition |
| --- | --- | --- |
| C#CCOCCOCCOCCNc1nc(N2CCN(C(=O)[C@H](Cc3ccc(O)cc3)n3cc([C@@H](N)CC(C)C)nn3)CC2)nc(N2CCN(C(=O)[C@H](Cc3cc4ccccc4[nH]3)n3cc([C@@H](N)CC(C)C)nn3)CC2)n1 | active: 35.5 µM |  |
| O=C(CSc1nc2ccccc2c(=O)[nH]1)Nc1nc(-c2ccc(Br)cc2)cs1 | active: 4.47 µM |  |
| Cc1ccc(-n2ncc(C(=O)NC3CCN(Cc4ccccc4)CC3)c2C2CCN(C(=O)OC(C)(C)C)CC2)cc1C | inactive |  |
| Cc1c(Cc2ccccc2)c(=O)oc2c(C)c(OCC(=O)N[C@@H](Cc3ccccc3)C(=O)O)ccc12 | active: 50.1 µM |  |
| Cc1ccc(-n2ccc(=O)c(C(=O)Nc3ccc(S(=O)(=O)Nc4nccs4)cc3)n2)cc1 |  | inconclusive: -81.7% [inhibitor] |
| Cc1ccc(-n2cc(C(=O)OCc3ccc(F)c(F)c3)c3ccccc3c2=O)cc1 | inactive |  |
| CC12C(=O)N(c3nccs3)C(=O)C1C1C=CC2C1 (stereo not given) | active: 31.6 µM |  |
| O=C(CN1C(=O)CCSc2ccccc21)Nc1ccc(C(F)(F)F)cc1 | inactive |  |
| COc1ccc2nc(Nc3sc4c(c3C(N)=O)CCCC4)sc2c1 | inactive |  |
| O=C(O)c1cc(N/N=C/c2ccc(OCc3ccccc3)cc2)ccc1Cl | active: 50.1 µM |  |
| COc1ccc2c(c1)C(C)=CC(C)(C)N2C(=O)CNCc1ccc2c(c1)OCO2 | inconclusive: 100 µM [inhibitor, single point] |  |
| CCCCOc1cccc(C(=O)N2CCN(CCc3ccncc3)CC2)c1 | inconclusive: 56.2 µM [inhibitor, partial curve, poor fit] |  |
| Cc1ccc(C(=O)CSc2nnc(COc3ccccc3)o2)cc1 | inconclusive: 63.1 µM [inhibitor, single point] |  |
| CC(/C=C/c1ccccc1)=N\NC(N)=S | inactive |  |
| CCC1=C/C(=C\c2ccc3c(c2)OCO3)C(=O)S1 | active: 14.1 µM |  |
| O=[N+]([O-])c1ccc(-c2ccc(/C=N/c3c(-c4ccco4)nc4ccccn34)o2)c(Cl)c1 | inactive |  |
| COc1ccccc1/C=N/NC(=O)c1ccc(NC(=O)c2cccc([N+](=O)[O-])c2)cc1 | inactive |  |
| O=C(NCc1ccccc1)c1ccc(Cl)cc1 |  | inconclusive: -35% [inhibitor] |
| Cc1c(C(=O)O)sc2nc3n(c(=O)c12)CCC3 | active: 17.8 µM |  |
| Cc1ccc(/C=N/Nc2ccnc3cc(Cl)ccc23)c(C)c1 | inactive |  |
| O=C(NCCC1=CCCCC1)c1ccc2c(c1)N(Cc1ccccc1)C(=O)c1ccccc1S2=O (stereo not given) | inconclusive: 89.1 µM [inhibitor, single point] |  |
| O=C(COC(=O)c1ccc(Cl)c(S(=O)(=O)N2CCCC2)c1)NCc1cccs1 | inconclusive: 17.8 µM [inhibitor, full curve, poor fit] |  |
| Cc1ccc(NC(=S)NCCCN2CCOCC2)cc1C | inconclusive: 3.16 µM [inhibitor, full curve] |  |
| COc1ccccc1/C=C(/CC(=O)NCc1ccc2c(c1)OCO2)c1nc2ccccc2s1 | inconclusive: 39.8 µM [inhibitor, single point] |  |

| SMILES | Potency | activity change, negative = inhibition |
| --- | --- | --- |
| O=C(COn1nnc2ccccc21)NCC1CCCCC1 | inconclusive: 12.6 µM [inhibitor, partial curve] |  |
| CCOC(=O)c1c(NC(=O)c2ccc(S(=O)(=O)N(CC)CC)cc2)sc2c1CCCCC2 | inactive |  |
| O=C(Nc1cccc(C(F)(F)F)c1)Nc1ccc2snnc2c1 | inconclusive: 31.6 µM [inhibitor, single point] |  |
| CN(C)c1ccc(C(CNS(=O)(=O)c2ccc(F)cc2F)N2CCOCC2)cc1 (stereo not given) | inactive |  |
| Cc1ccc(NC(=O)c2ccco2)c(NC(=O)C2CCCO2)c1 (stereo not given) | inactive |  |
| COc1ccc2ccccc2c1/C=N/NC(=O)c1ccc(C)nc1 | inconclusive: 3.98 µM [inhibitor, partial curve, poor fit] |  |
| O=C(CCCn1c(=O)c2sccc2n(CC(=O)NCc2ccco2)c1=O)NCc1ccco1 | inactive |  |
| CCC(=O)Nc1cccc(NC(C)=O)c1 | active: 22.4 µM |  |
| C[N+](C)(C)C(Cc1c[nH]c2ccccc12)C(=O)[O-] (stereo not given) | inconclusive: 7.94 µM [inhibitor, full curve, poor fit] |  |
| Cc1cccc(NC(=O)Cn2c(=O)c3cccn3c3ccccc32)c1C | inactive |  |
| C=CCn1cnc2sc(C(=O)Nc3ccccc3OC)c(C)c2c1=O | inconclusive: 89.1 µM [inhibitor, single point] |  |
| COC(=O)c1ccc(OC(=O)C23CCC(C)(C(=O)O2)C3(C)C)cc1 (stereo not given) | inconclusive: 0.112 µM [inhibitor, full curve, poor fit] |  |
| COc1ccccc1N1CCN(C(=O)c2ccc(-c3ccccc3)cc2)CC1 | inconclusive: 14.1 µM [inhibitor, partial curve] |  |
| O=C(NC(=S)Nc1c(Cl)ccc2nsnc12)c1ccco1 | inactive |  |
| COc1cc(OC)c2c(-c3ccccc3)cc(=O)oc2c1C(CC(=O)N1CCCC1)c1ccc2c(c1)OCO2 (stereo not given) | active: 50.1 µM |  |
| Cc1ccc(C)c(SCC(=O)Nc2ccc(S(=O)(=O)Nc3ncccn3)cc2)c1 | inconclusive: 22.4 µM [inhibitor, full curve] |  |
| CCCSc1nc2sc3c(c2c(=O)n1-c1ccc(C)c(Cl)c1)CCN(C(C)=O)C3 | inconclusive: 14.1 µM [inhibitor, full curve] |  |
| CCN(Cc1ccccc1)C(=O)Cn1c(=O)n(-c2cccc(C)c2)c(=O)c2c1c1cc(OC)ccc1n2C | inactive |  |
| CCCc1ccc(OCc2ccc(C(=O)N3CCCC3)o2)cc1 | inconclusive: 0.501 µM [inhibitor, full curve, poor fit] |  |
| COc1cccc2sc(Nc3nc4ccc(NC(C)=O)cc4s3)nc12 | inconclusive: 89.1 µM [inhibitor, single point] |  |
| O=C(NCc1ccccc1)c1onc(CSc2ccccn2)c1C(=O)NCc1ccccc1 | inconclusive: 0.141 µM [inhibitor, full curve, poor fit] |  |
| COc1cc(-c2nc(C(N)=O)c3c(n2)n(-c2cccc(C)c2)c(=O)n3C)cc(OC)c1OC | inconclusive: 1 µM [inhibitor, full curve, poor fit] |  |

From PubChem BioAssay AID485314 (National Center for Advancing Translational Sciences (NCATS), 2010)
